# From PMC6345998
# The chains behind the UniProt entries cited, without tags or fusion partners. Where a name states a change or a piece, a line headed by the entry shows the natural chain unless it says otherwise.
# UniProt Q9EPK5: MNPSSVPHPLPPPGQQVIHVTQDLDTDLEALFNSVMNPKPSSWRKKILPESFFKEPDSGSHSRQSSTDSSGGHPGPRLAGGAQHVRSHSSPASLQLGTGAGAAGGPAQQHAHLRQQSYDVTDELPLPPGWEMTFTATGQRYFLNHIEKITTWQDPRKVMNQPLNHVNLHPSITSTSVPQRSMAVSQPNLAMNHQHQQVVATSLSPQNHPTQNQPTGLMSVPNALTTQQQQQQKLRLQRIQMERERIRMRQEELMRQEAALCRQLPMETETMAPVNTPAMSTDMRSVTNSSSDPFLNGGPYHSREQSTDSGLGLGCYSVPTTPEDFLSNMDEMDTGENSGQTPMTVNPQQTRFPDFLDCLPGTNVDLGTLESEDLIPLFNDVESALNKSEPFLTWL
# UniProt P05627: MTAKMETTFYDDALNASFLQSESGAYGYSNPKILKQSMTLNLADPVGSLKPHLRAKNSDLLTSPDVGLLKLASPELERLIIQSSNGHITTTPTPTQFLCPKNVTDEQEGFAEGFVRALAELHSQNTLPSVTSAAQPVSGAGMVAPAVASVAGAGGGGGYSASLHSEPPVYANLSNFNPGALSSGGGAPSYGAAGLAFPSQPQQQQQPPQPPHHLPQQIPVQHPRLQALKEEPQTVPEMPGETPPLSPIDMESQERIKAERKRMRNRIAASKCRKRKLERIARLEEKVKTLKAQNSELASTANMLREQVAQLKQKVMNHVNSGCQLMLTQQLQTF
# These are yes or no findings as the source states them, for the method shown. Binding seen in cells or lysates may run through a third protein.
# Target: WW domain-truncated TAZ (ΔWW) (UniProt Q9EPK5)
# Experiment: co-IP; 293T cells co-transfected with FLAG-TAZ constructs and c-Jun; lysis in RIPA buffer; immunoprecipitation with anti-FLAG antibodies, blot with TAZ and c-Jun antibodies
substance,measurement,value
c-Jun (ectopically expressed) (from UniProt P05627 1-334),binding,no binding
